In article PMC5642542:
No constants are given. Whether binding was seen depends on the method and setting. In cells and extracts the contact can be indirect. Some entries that bind do so weakly or less than the wild type.

T1: Origin Recognition Complex subunit 2 (ORC2) (human (endogenous in U2OS)) (UniProt Q13416)
T1 sequence: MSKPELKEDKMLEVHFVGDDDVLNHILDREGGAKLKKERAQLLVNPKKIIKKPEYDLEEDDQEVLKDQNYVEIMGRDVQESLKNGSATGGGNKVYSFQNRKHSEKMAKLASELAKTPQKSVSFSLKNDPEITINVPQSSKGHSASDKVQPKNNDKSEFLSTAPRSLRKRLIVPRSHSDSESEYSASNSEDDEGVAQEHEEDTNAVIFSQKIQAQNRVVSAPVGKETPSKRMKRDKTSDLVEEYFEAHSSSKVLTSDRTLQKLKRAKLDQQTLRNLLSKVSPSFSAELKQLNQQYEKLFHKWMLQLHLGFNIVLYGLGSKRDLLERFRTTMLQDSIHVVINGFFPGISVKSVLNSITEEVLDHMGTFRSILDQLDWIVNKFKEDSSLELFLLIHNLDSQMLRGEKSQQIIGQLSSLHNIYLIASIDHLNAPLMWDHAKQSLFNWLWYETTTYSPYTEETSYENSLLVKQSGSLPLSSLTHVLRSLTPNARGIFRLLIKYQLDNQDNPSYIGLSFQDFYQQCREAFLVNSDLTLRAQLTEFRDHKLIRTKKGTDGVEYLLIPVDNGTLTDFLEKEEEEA

B1: SUMO E3 ligase PIAS4 (enzyme, UniProt Q8N2W9 1-510)
chain: MAAELVEAKNMVMSFRVSDLQMLLGFVGRSKSGLKHELVTRALQLVQFDCSPELFKKIKELYETRYAKKNSEPAPQPHRPLDPLTMHSTYDRAGAVPRTPLAGPNIDYPVLYGKYLNGLGRLPAKTLKPEVRLVKLPFFNMLDELLKPTELVPQNNEKLQESPCIFALTPRQVELIRNSRELQPGVKAVQVVLRICYSDTSCPQEDQYPPNIAVKVNHSYCSVPGYYPSNKPGVEPKRPCRPINLTHLMYLSSATNRITVTWGNYGKSYSVALYLVRQLTSSELLQRLKTIGVKHPELCKALVKEKLRLDPDSEIATTGVRVSLICPLVKMRLSVPCRAETCAHLQCFDAVFYLQMNEKKPTWMCPVCDKPAPYDQLIIDGLLSKILSECEDADEIEYLVDGSWCPIRAEKERSCSPQGAILVLGPSDANGLLPAPSVNGSGALGSTGGGGPVGSMENGKPGADVVDLTLDSSSSSEDEEEEEEEEEDEDEEGPRPKRRCPFQKGLVPAC
B2: De-SUMOylase SENP2 (enzyme, UniProt Q9HC62 1-589)
chain: MYRWLVRILGTIFRFCDRSVPPARALLKRRRSDSTLFSTVDTDEIPAKRPRLDCFIHQVKNSLYNAASLFGFPFQLTTKPMVTSACNGTRNVAPSGEVFSNSSSCELTGSGSWNNMLKLGNKSPNGISDYPKIRVTVTRDQPRRVLPSFGFTLNSEGCNRRPGGRRHSKGNPESSLMWKPQEQAVTEMISEESGKGLRRPHCTVEEGVQKEEREKYRKLLERLKESGHGNSVCPVTSNYHSSQRSQMDTLKTKGWGEEQNHGVKTTQFVPKQYRLVETRGPLCSLRSEKRCSKGKITDTETMVGIRFENESRRGYQLEPDLSEEVSARLRLGSGSNGLLRRKVSIIETKEKNCSGKERDRRTDDLLELTEDMEKEISNALGHGPQDEILSSAFKLRITRGDIQTLKNYHWLNDEVINFYMNLLVERNKKQGYPALHVFSTFFYPKLKSGGYQAVKRWTKGVNLFEQEIILVPIHRKVHWSLVVIDLRKKCLKYLDSMGQKGHRICEILLQYLQDESKTKRNSDLNLLEWTHHSMKPHEIPQQLNGSDCGMFTCKYADYISRDKPITFTQHQMPLFRKKMVWEILHQQLL

Key:
[1] = target: T1, Origin Recognition Complex subunit 2 (ORC2) (human (endogenous in U2OS)); assay: co-IP; U2OS cells treated with nocodazole for 24 hours; immunoprecipitation with ORC2 antibody, blotted with ORC2 or PIAS4 antibody
[2] = target: T1, Origin Recognition Complex subunit 2 (ORC2) (human (endogenous in U2OS)); assay: condition: only after release from nocodazole arrest into fresh medium; co-IP; U2OS cells treated with nocodazole for 24 hours, then released into fresh medium for indicated times; immunoprecipitation with ORC2 antibody, blotted with ORC2, PIAS4 or SENP2 antibody
[3] = target: T1, Origin Recognition Complex subunit 2 (ORC2) (human (endogenous in U2OS)); assay: co-IP; U2OS cells treated with nocodazole for 24 hours, then released into fresh medium for indicated times; immunoprecipitation with ORC2 antibody, blotted with ORC2, PIAS4 or SENP2 antibody

| binding [1] | binding [2] | binding [3] | Binder |
| --- | --- | --- | --- |
| binds | no binding | – | B1 |
| – | – | binds | B2 |
